The values below are quoted from earlier work in patent publication US20060122174A1, “Antiviral treatment” (Henderson Morley Research & Development Limited, priority 2001, published 2006).

In the data set the test system is plasma proteins, mainly albumin. To be noted: cited from earlier work.

Take `NS(=O)(=O)c1cc(C(=O)O)c(NCc2ccco2)cc1Cl` [frusemide, 4-chloro-N-furfuryl-5-sulfamoylanthranilic acid]: for the setting “at therapeutic concentrations”, the unbound fraction was 2.3-4.1%. The “bound to plasma proteins” value (plasma concentrations ranging from 1 to 400 mcg/ml, healthy individuals) is 91-99%.
